Test results: paper PMC9747961
Substitutions are numbered along the chain they refer to. In names and notes the source's numbering stands. No constants are given. Whether binding was seen depends on the method and setting. Binding seen in cells or lysates may run through a third protein. Some entries that bind do so weakly or less than the wild type. Sequences can lack the tags named with a protein.

By UniProt entry, the sequences of proteins in these tests, tags left out.
UniProt Q91YI4: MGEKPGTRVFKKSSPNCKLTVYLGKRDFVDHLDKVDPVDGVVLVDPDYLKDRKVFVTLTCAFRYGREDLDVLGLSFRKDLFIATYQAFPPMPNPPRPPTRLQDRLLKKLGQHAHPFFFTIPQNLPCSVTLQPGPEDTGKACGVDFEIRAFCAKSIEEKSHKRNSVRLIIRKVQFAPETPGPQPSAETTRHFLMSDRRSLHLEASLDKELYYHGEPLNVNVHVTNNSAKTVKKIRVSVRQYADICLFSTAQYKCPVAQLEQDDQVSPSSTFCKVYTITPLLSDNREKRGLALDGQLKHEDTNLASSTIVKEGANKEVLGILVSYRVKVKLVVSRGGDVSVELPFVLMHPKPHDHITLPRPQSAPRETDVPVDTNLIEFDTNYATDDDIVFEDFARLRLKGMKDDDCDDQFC
UniProt P32121: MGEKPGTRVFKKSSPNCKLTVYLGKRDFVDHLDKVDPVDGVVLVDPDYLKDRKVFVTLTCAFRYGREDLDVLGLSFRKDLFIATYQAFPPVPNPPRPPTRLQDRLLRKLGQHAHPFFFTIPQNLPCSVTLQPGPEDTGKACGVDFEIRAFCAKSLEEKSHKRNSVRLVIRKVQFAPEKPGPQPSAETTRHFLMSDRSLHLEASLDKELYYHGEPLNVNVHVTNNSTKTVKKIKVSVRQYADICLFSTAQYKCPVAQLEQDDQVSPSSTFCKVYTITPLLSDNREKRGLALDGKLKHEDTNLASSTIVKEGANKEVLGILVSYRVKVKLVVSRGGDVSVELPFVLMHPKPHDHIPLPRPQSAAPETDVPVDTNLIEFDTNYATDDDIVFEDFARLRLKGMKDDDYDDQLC

B1: GPR120-tGFP fusion protein (green fluorescent protein-tagged GPR120), expressed in mouse primary VSMCs (receptor, UniProt Q7TMA4 1-361)
chain: MSPECAQTTGPGPSHTLDQVNRTHFPFFSDVKGDHRLVLSVVETTVLGLIFVVSLLGNVCALVLVARRRRRGATASLVLNLFCADLLFTSAIPLVLVVRWTEAWLLGPVVCHLLFYVMTMSGSVTILTLAAVSLERMVCIVRLRRGLSGPGRRTQAALLAFIWGYSALAALPLCILFRVVPQRLPGGDQEIPICTLDWPNRIGEISWDVFFVTLNFLVPGLVIVISYSKILQITKASRKRLTLSLAYSESHQIRVSQQDYRLFRTLFLLMVSFFIMWSPIIITILLILIQNFRQDLVIWPSLFFWVVAFTFANSALNPILYNMSLFRNEWRKIFCCFFFPEKGAIFTDTSVRRNDLSVISS
B2: K32R/GPR120-tGFP fusion protein, expressed in 293T cells with the SUMO2-HA plasmid (receptor, UniProt Q7TMA4 1-361)
chain: B1 chain with K32R

Key:
[1] = target: β-arrestin 2 (in mouse primary VSMCs) (mouse (endogenous in primary VSMCs)) (UniProt Q91YI4); experiment: co-IP; WT mouse primary VSMCs expressing GPR120-tGFP; cells lysed in RIPA buffer; immunoprecipitates analysed by western blot (Fig. 4N, O); an anti-β-arrestin 2 antibody (sc-365445) is listed for the IP assay
[2] = target: β-arrestin 2 (in 293T cells) (human (endogenous in 293T)) (UniProt P32121); experiment: co-IP; 293T cells transfected with GPR120-tGFP (WT) or K32R/GPR120-tGFP together with the SUMO2-HA plasmid (Fig. S4G)

Row | Binder | binding [1] | binding [2]
1 | B1 | binds | –
2 | B2 | – | binds
